B1: AQR (protein, UniProt O60306 1-1485)
chain: MAAPAQPKKIVAPTVSQINAEFVTQLACKYWAPHIKKKSPFDIKVIEDIYEKEIVKSRFAIRKIMLLEFSQYLENYLWMNYSPEVSSKAYLMSICCMVNEKFRENVPAWEIFKKKPDHFPFFFKHILKAALAETDGEFSLHEQTVLLLFLDHCFNSLEVDLIRSQVQQLISLPMWMGLQLARLELELKKTPKLRKFWNLIKKNDEKMDPEAREQAYQERRFLSQLIQKFISVLKSVPLSEPVTMDKVHYCERFIELMIDLEALLPTRRWFNTILDDSHLLVHCYLSNLVRREEDGHLFSQLLDMLKFYTGFEINDQTGNALTENEMTTIHYDRITSLQRAAFAHFPELYDFALSNVAEVDTRESLVKFFGPLSSNTLHQVASYLCLLPTLPKNEDTTFDKEFLLELLVSRHERRISQIQQLNQMPLYPTEKIIWDENIVPTEYYSGEGCLALPKLNLQFLTLHDYLLRNFNLFRLESTYEIRQDIEDSVSRMKPWQSEYGGVVFGGWARMAQPIVAFTVVEVAKPNIGENWPTRVRADVTINLNVRDHIKDEWEGLRKHDVCFLITVRPTKPYGTKFDRRRPFIEQVGLVYVRGCEIQGMLDDKGRVIEDGPEPRPNLRGESRTFRVFLDPNQYQQDMTNTIQNGAEDVYETFNIIMRRKPKENNFKAVLETIRNLMNTDCVVPDWLHDIILGYGDPSSAHYSKMPNQIATLDFNDTFLSIEHLKASFPGHNVKVTVEDPALQIPPFRITFPVRSGKGKKRKDADVEDEDTEEAKTLIVEPHVIPNRGPYPYNQPKRNTIQFTHTQIEAIRAGMQPGLTMVVGPPGTGKTDVAVQIISNIYHNFPEQRTLIVTHSNQALNQLFEKIMALDIDERHLLRLGHGEEELETEKDFSRYGRVNYVLARRIELLEEVKRLQKSLGVPGDASYTCETAGYFFLYQVMSRWEEYISKVKNKGSTLPDVTEVSTFFPFHEYFANAPQPIFKGRSYEEDMEIAEGCFRHIKKIFTQLEEFRASELLRSGLDRSKYLLVKEAKIIAMTCTHAALKRHDLVKLGFKYDNILMEEAAQILEIETFIPLLLQNPQDGFSRLKRWIMIGDHHQLPPVIKNMAFQKYSNMEQSLFTRFVRVGVPTVDLDAQGRARASLCNLYNWRYKNLGNLPHVQLLPEFSTANAGLLYDFQLINVEDFQGVGESEPNPYFYQNLGEAEYVVALFMYMCLLGYPADKISILTTYNGQKHLIRDIINRRCGNNPLIGRPNKVTTVDRFQGQQNDYILLSLVRTRAVGHLRDVRRLVVAMSRARLGLYIFARVSLFQNCFELTPAFSQLTARPLHLHIIPTEPFPTTRKNGERPSHEVQIIKNMPQMANFVYNMYMHLIQTTHHYHQTLLQLPPAMVEEGEEVQNQETELETEEEAMTVQADIIPSPTDTSCRQETPAFQTDTTPSETGATSTPEAIPALSETTPTVVGAVSAPAEANTPQDATSAPEETK
B2: RAB9A (protein, UniProt P51151 1-201)
chain: MAGKSSLFKVILLGDGGVGKSSLMNRYVTNKFDTQLFHTIGVEFLNKDLEVDGHFVTMQIWDTAGQERFRSLRTPFYRGSDCCLLTFSVDDSQSFQNLSNWKKEFIYYADVKEPESFPFVILGNKIDISERQVSTEEAQAWCRDNGDYPYFETSAKDATNVAAAFEEAVRRVLATEDRSDHLIQTDTVNLHRKPKPSSSCC
B3: LAS1L (protein, UniProt Q9Y4W2 1-734)
chain: MSWESGAGPGLGSQGMDLVWSAWYGKCVKGKGSLPLSAHGIVVAWLSRAEWDQVTVYLFCDDHKLQRYALNRITVWRSRSGNELPLAVASTADLIRCKLLDVTGGLGTDELRLLYGMALVRFVNLISERKTKFAKVPLKCLAQEVNIPDWIVDLRHELTHKKMPHINDCRRGCYFVLDWLQKTYWCRQLENSLRETWELEEFREGIEEEDQEEDKNIVVDDITEQKPEPQDDGKSTESDVKADGDSKGSEEVDSHCKKALSHKELYERARELLVSYEEEQFTVLEKFRYLPKAIKAWNNPSPRVECVLAELKGVTCENREAVLDAFLDDGFLVPTFEQLAALQIEYEDGQTEVQRGEGTDPKSHKNVDLNDVLVPKPFSQFWQPLLRGLHSQNFTQALLERMLSELPALGISGIRPTYILRWTVELIVANTKTGRNARRFSAGQWEARRGWRLFNCSASLDWPRMVESCLGSPCWASPQLLRIIFKAMGQGLPDEEQEKLLRICSIYTQSGENSLVQEGSEASPIGKSPYTLDSLYWSVKPASSSFGSEAKAQQQEEQGSVNDVKEEEKEEKEVLPDQVEEEEENDDQEEEEEDEDDEDDEEEDRMEVGPFSTGQESPTAENARLLAQKRGALQGSAWQVSSEDVRWDTFPLGRMPGQTEDPAELMLENYDTMYLLDQPVLEQRLEPSTCKTDTLGLSCGVGSGNCSNSSSSNFEGLLWSQGQLHGLKTGLQLF
B4: SMS (protein, UniProt P52788 1-366)
chain: MAAARHSTLDFMLGAKADGETILKGLQSIFQEQGMAESVHTWQDHGYLATYTNKNGSFANLRIYPHGLVLLDLQSYDGDAQGKEEIDSILNKVEERMKELSQDSTGRVKRLPPIVRGGAIDRYWPTADGRLVEYDIDEVVYDEDSPYQNIKILHSKQFGNILILSGDVNLAESDLAYTRAIMGSGKEDYTGKDVLILGGGDGGILCEIVKLKPKMVTMVEIDQMVIDGCKKYMRKTCGDVLDNLKGDCYQVLIEDCIPVLKRYAKEGREFDYVINDLTAVPISTSPEEDSTWEFLRLILDLSMKVLKQDGKYFTQGNCVNLTEALSLYEEQLGRLYCPVEFSKEIVCVPSYLELWVFYTVWKKAKP
B5: DAZAP1 (protein, UniProt Q96EP5 1-407)
chain: MNNSGADEIGKLFVGGLDWSTTQETLRSYFSQYGEVVDCVIMKDKTTNQSRGFGFVKFKDPNCVGTVLASRPHTLDGRNIDPKPCTPRGMQPERTRPKEGWQKGPRSDNSKSNKIFVGGIPHNCGETELREYFKKFGVVTEVVMIYDAEKQRPRGFGFITFEDEQSVDQAVNMHFHDIMGKKVEVKRAEPRDSKSQAPGQPGASQWGSRVVPNAANGWAGQPPPTWQQGYGPQGMWVPAGQAIGGYGPPPAGRGAPPPPPPFTSYIVSTPPGGFPPPQGFPQGYGAPPQFSFGYGPPPPPPDQFAPPGVPPPPATPGAAPLAFPPPPSQAAPDMSKPPTAQPDFPYGQYAGYGQDLSGFGQGFSDPSQQPPSYGGPSVPGSGGPPAGGSGFGRGQNHNVQGFHPYRR
B6: RAP2B (protein, UniProt P61225 1-183)
chain: MREYKVVVLGSGGVGKSALTVQFVTGSFIEKYDPTIEDFYRKEIEVDSSPSVLEILDTAGTEQFASMRDLYIKNGQGFILVYSLVNQQSFQDIKPMRDQIIRVKRYERVPMILVGNKVDLEGEREVSYGEGKALAEEWSCPFMETSAKNKASVDELFAEIVRQMNYAAQPNGDEGCCSACVIL
B7: SCARB2 (protein, UniProt Q14108 1-478)
chain: MGRCCFYTAGTLSLLLLVTSVTLLVARVFQKAVDQSIEKKIVLRNGTEAFDSWEKPPLPVYTQFYFFNVTNPEEILRGETPRVEEVGPYTYRELRNKANIQFGDNGTTISAVSNKAYVFERDQSVGDPKIDLIRTLNIPVLTVIEWSQVHFLREIIEAMLKAYQQKLFVTHTVDELLWGYKDEILSLIHVFRPDISPYFGLFYEKNGTNDGDYVFLTGEDSYLNFTKIVEWNGKTSLDWWITDKCNMINGTDGDSFHPLITKDEVLYVFPSDFCRSVYITFSDYESVQGLPAFRYKVPAEILANTSDNAGFCIPEGNCLGSGVLNVSICKNGAPIIMSFPHFYQADERFVSAIEGMHPNQEDHETFVDINPLTGIILKAAKRFQINIYVKKLDDFVETGDIRTMVFPVMYLNESVHIDKETASRLKSMINTTLIITNIPYIIMALGVFFGLVFTWLACKGQGSMDEGTADERAPLIRT
B8: GBE1 (protein, UniProt Q04446 1-702)
chain: MAAPMTPAARPEDYEAALNAALADVPELARLLEIDPYLKPYAVDFQRRYKQFSQILKNIGENEGGIDKFSRGYESFGVHRCADGGLYCKEWAPGAEGVFLTGDFNGWNPFSYPYKKLDYGKWELYIPPKQNKSVLVPHGSKLKVVITSKSGEILYRISPWAKYVVREGDNVNYDWIHWDPEHSYEFKHSRPKKPRSLRIYESHVGISSHEGKVASYKHFTCNVLPRIKGLGYNCIQLMAIMEHAYYASFGYQITSFFAASSRYGTPEELQELVDTAHSMGIIVLLDVVHSHASKNSADGLNMFDGTDSCYFHSGPRGTHDLWDSRLFAYSSWEILRFLLSNIRWWLEEYRFDGFRFDGVTSMLYHHHGVGQGFSGDYSEYFGLQVDEDALTYLMLANHLVHTLCPDSITIAEDVSGMPALCSPISQGGGGFDYRLAMAIPDKWIQLLKEFKDEDWNMGDIVYTLTNRRYLEKCIAYAESHDQALVGDKSLAFWLMDAEMYTNMSVLTPFTPVIDRGIQLHKMIRLITHGLGGEGYLNFMGNEFGHPEWLDFPRKGNNESYHYARRQFHLTDDDLLRYKFLNNFDRDMNRLEERYGWLAAPQAYVSEKHEGNKIIAFERAGLLFIFNFHPSKSYTDYRVGTALPGKFKIVLDSDAAEYGGHQRLDHSTDFFSEAFEHNGRPYSLLVYIPSRVALILQNVDLPN
B9: PYGL (protein, UniProt P06737 1-847)
chain: MAKPLTDQEKRRQISIRGIVGVENVAELKKSFNRHLHFTLVKDRNVATTRDYYFALAHTVRDHLVGRWIRTQQHYYDKCPKRVYYLSLEFYMGRTLQNTMINLGLQNACDEAIYQLGLDIEELEEIEEDAGLGNGGLGRLAACFLDSMATLGLAAYGYGIRYEYGIFNQKIRDGWQVEEADDWLRYGNPWEKSRPEFMLPVHFYGKVEHTNTGTKWIDTQVVLALPYDTPVPGYMNNTVNTMRLWSARAPNDFNLRDFNVGDYIQAVLDRNLAENISRVLYPNDNFFEGKELRLKQEYFVVAATLQDIIRRFKASKFGSTRGAGTVFDAFPDQVAIQLNDTHPALAIPELMRIFVDIEKLPWSKAWELTQKTFAYTNHTVLPEALERWPVDLVEKLLPRHLEIIYEINQKHLDRIVALFPKDVDRLRRMSLIEEEGSKRINMAHLCIVGSHAVNGVAKIHSDIVKTKVFKDFSELEPDKFQNKTNGITPRRWLLLCNPGLAELIAEKIGEDYVKDLSQLTKLHSFLGDDVFLRELAKVKQENKLKFSQFLETEYKVKINPSSMFDVQVKRIHEYKRQLLNCLHVITMYNRIKKDPKKLFVPRTVIIGGKAAPGYHMAKMIIKLITSVADVVNNDPMVGSKLKVIFLENYRVSLAEKVIPATDLSEQISTAGTEASGTGNMKFMLNGALTIGTMDGANVEMAEEAGEENLFIFGMRIDDVAALDKKGYEAKEYYEALPELKLVIDQIDNGFFSPKQPDLFKDIINMLFYHDRFKVFADYEAYVKCQDKVSQLYMNPKAWNTMVLKNIAASGKFSSDRTIKEYAQNIWNVEPSDLKISLSNESNKVNGN

Amino acid sequences for entries named in this document (tags omitted).
UniProt P08670: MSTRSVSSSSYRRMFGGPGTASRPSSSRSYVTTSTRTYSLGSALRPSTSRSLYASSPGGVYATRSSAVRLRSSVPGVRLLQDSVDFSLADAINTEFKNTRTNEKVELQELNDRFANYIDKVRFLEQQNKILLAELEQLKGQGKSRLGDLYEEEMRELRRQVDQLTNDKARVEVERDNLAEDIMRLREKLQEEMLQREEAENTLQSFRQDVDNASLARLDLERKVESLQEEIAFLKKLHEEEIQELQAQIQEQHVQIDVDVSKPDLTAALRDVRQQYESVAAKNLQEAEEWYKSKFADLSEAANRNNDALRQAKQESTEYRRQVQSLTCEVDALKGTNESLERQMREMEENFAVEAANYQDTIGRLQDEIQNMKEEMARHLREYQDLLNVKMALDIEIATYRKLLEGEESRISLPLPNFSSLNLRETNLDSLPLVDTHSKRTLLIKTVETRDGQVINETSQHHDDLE

No constants are given. Whether binding was seen depends on the method and setting. Binding seen in cells or lysates may run through a third protein. These calls come from enrichment with a bait or labelling near it, and not all partners need be listed.

For this experiment, the target named is VIM-APEX2-GFP (UniProt P08670). The experiment in a line: proximity labelling.
For B1, the binding entry was “binds”.

For the molecule B2, the binding result was “binds”.

In the case of B3, the binding result is “binds”.

For the molecule B4, the binding result is “binds”.

B5: the binding entry was “binds”.

Take B6: the binding result was “binds”.

For the molecule B7, the binding result is reported as “binds”.

On to B8, for which the binding entry is “binds”.

For B9, the binding result is reported as “binds”.

(Values after article doi:10.1101/2025.10.30.684516.)
